Experimental data: PubChem BioAssay AID1259254 (NCATS, 2017)

Screen: 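Gene knock-downs that lead to re-replication, shown by excess G2 DNA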 (primary screen)
Cells: human HCT116 colorectal cancer cells
Knock-down reagent: single siRNA against human genes
Duration: 3 days
Read-out: 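Imaged Hoechst DNA stain sorts each cell into a cycle phase by DNA amount; per plate, G2 fraction set to 0% for non-targeting and 100% for GMNN siRNA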
Direction: G2 robust z-score: higher = more G2 cells, more excess DNA replication
Active means: 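An siRNA counts as active if its G2 robust z-score lies at least 5 MADs above the screen median; here such calls match roughly 38% of GMNN control or more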
Shown is an unselected part of about 59,000 reagents. About 1,550 of all reagents (2.6%) count as active. 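G2 share is only a proxy for re-replication; each gene was hit by three separate siRNAs, and active genes were retested.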 The numbers tell different reagents against one gene apart. Further read-outs or replicates are left out here. No sequences are given here. Not given: the amount of reagent.

G2 robust z-score, by gene and reagent
SPATA24 (spermatogenesis associated 24): #1 0.0716 inactive; #2 -0.14 inactive; #3 0.485 inactive
CLRN1 (clarin 1): #1 0.791 inactive; #2 0.0617 inactive; #3 0.0896 inactive
MRO (maestro): #1 0.516 inactive; #2 4.53 inactive; #3 0.207 inactive
TRIM21 (tripartite motif containing 21): #1 4.84 inactive; #2 2.96 inactive; #3 -0.537 inactive
CHD8 (chromodomain helicase DNA binding protein 8): #1 -0.0289 inactive; #2 0.846 inactive; #3 4.06 inactive

3 of these entries in another layout:
gene	reagent no.	G2 robust z-score	activity call
TRIM21 (tripartite motif containing 21)	2	2.96	inactive
TRIM21 (tripartite motif containing 21)	3	-0.537	inactive
CHD8 (chromodomain helicase DNA binding protein 8)	1	-0.0289	inactive

The listing continues:
G2 robust z-score, by gene and reagent
SCN3B (sodium voltage-gated channel beta subunit 3): #1 5.88 active; #2 2.58 inactive; #3 -0.61 inactive
MRPL44 (mitochondrial ribosomal protein L44): #1 -0.888 inactive; #2 0.773 inactive; #3 -0.445 inactive
MAP1LC3C (microtubule associated protein 1 light chain 3 gamma): #1 1.06 inactive; #2 1.46 inactive; #3 -0.201 inactive
PPP1R36 (protein phosphatase 1 regulatory subunit 36): #1 -0.159 inactive; #2 1.49 inactive; #3 -1.05 inactive
OPA3 (outer mitochondrial membrane lipid metabolism regulator OPA3): #1 0.301 inactive; #2 5.68 active; #3 3.4 inactive
